According to PubChem BioAssay AID602313 (National Center for Advancing Translational Sciences (NCATS), 2012):
Values joined by “and” are separate entries in the source; they are usually repeats but may differ in a detail not shown here. Identical values can stand only once. The whole screen tested about 390,000 compounds, of which about 760 (0.19%) were called active. Inconclusive results, whose numbers are uncertain, are shown with a selection of clear calls. The call rests on the fitted dose curve; in most records, active means well fitted inhibition curve with a large enough effect; inconclusive means small, poorly fitted or top-dose-only effect; inactive means flat fitted curve, though single readings scatter. Potencies of inconclusive entries are doubtful fits and often do not repeat.

Test: qHTS for Inhibitors of Vif-A3F Interactions: qHTS; further: nearly all actives have a fitted effect of over 65% in size
Settings: HeLa A3F-eYFP + Vif (tagged APOBEC3F with the HIV-1 protein that degrades it), YFP fluorescence increase; series mostly up to 46.1 µM
Outline: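 HeLa cells stably expressing Vif plus C-terminally eYFP-tagged A3F were seeded, incubated overnight at 37 deg C, dosed with compound, incubated overnight again at 37 deg C. Yellow fluorescence (Ex 488/Em 500-530) reported blocked Vif-mediated A3F-eYFP degradation.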
Potency means the concentration at half of the fitted maximal effect.

Compound	Potency
N#C/C(=C/c1ccc(N2CCOCC2)o1)C(=O)Nc1ccccc1	inconclusive: 3.55 µM [inhibitor, partial curve, poor fit]
Cc1cccc(NC(=O)CSc2nc3c([nH]c4ccccc43)c(=O)n2C)c1	inconclusive: 6.31 µM [inhibitor, full curve, poor fit] and inconclusive: 22.4 µM [inhibitor, single point]
Cc1cccc(NC(=O)CN2C(=O)N/C(=C/c3ccc(C)s3)C2=O)c1	inconclusive: 20 µM [inhibitor, partial curve, poor fit]
C[C@H](CO)N1C[C@H](C)[C@H](CN(C)Cc2ccccc2)Oc2ncc(Br)cc2C1=O	inconclusive: 10 µM [inhibitor, partial curve]
CCCCN(C(=O)c1cc(Cl)nc2ccccc12)c1c(N)n(CCCC)c(=O)[nH]c1=O	inconclusive: 2.24 µM [inhibitor, partial curve, poor fit]
N#Cc1ccc(CN(c2ccncc2)S(=O)(=O)c2ccccc2)cc1	inconclusive: 35.5 µM [inhibitor, single point]
CC1CCCC(N2CCN(C(=O)c3ccc([N+](=O)[O-])cc3)CC2)C1 (stereo not drawn)	inactive
O=C(CN1CCN(c2ccc(O)cc2)CC1)N1CCc2ccccc21	inconclusive: 22.4 µM [inhibitor, single point]
N#CC1=C(N)Oc2c(oc(CO)cc2=O)C1c1ccccc1[N+](=O)[O-] (stereo not drawn)	inactive
COc1ccc(C2C=C(C34CC5CC(CC(C5)C3)C4)NC(=S)N2)cc1OC (stereo not drawn)	inconclusive: 11.2 µM [inhibitor, partial curve, poor fit]
CC1CCCC(NC(=O)c2cc(-c3ccncc3)nc3ccccc23)C1C (stereo not drawn)	inconclusive: 35.5 µM [inhibitor, single point]
Cn1c(-c2ccccc2)c(C(=O)CC#N)c2ccccc21	inconclusive: 20 µM [inhibitor, single point]
COc1ccc(C(=O)N2CCN(c3cnn(-c4ccccc4)c(=O)c3Cl)CC2)cc1	inconclusive: 0.631 µM [inhibitor, full curve, poor fit]
O=C1c2cccc3cc([N+](=O)[O-])cc(c23)C(=O)N1CC1CCCO1 (stereo not drawn)	inconclusive: 12.6 µM [inhibitor, partial curve, poor fit]
O=[N+]([O-])c1ccc(-c2n(-c3ccccn3)c3ccccc3[n+]2-c2ccccn2)cc1	inconclusive: 6.31 µM [inhibitor, single point]
COc1ccc(Br)cc1C1CC(=O)N2CN(C)CSC2=C1C#N (stereo not drawn)	inactive
CC12C=CC(=O)C=C1CCC1C3CCC(O)(C(=O)CO)C3(C)CC(O)C12F (stereo not drawn)	inconclusive: 0.631 µM [inhibitor, full curve, poor fit]
Cc1ccc2nc(N(CCCN(C)C)C(=O)c3ccc(Br)s3)sc2c1	inactive
CCN(CC)c1ccc(/C=N/NC(=O)c2nnn(-c3nonc3N)c2C(C)C)c(O)c1	inactive
Cc1[nH]c2ccccc2c1C(=O)CSc1cccc[n+]1[O-]	inconclusive: 35.5 µM [inhibitor, single point]
Cc1cc(C)c2nc(NNC(=O)c3cc(-c4cccs4)nc4ccccc34)sc2c1	inconclusive: 35.5 µM [inhibitor, single point]

Compound	Potency
Cc1ccccc1C(=O)N1CCN(c2ccc(NC(=O)c3cccc(OC(C)C)c3)cc2)CC1	inactive
COc1cccc(NC(=O)CN(C)CC(=O)Nc2cccc(C(F)(F)F)c2)c1	inconclusive: 4.47 µM [inhibitor, full curve, poor fit]
COc1ccc(C2c3c(ncn(CCCO)c3=N)Oc3ccc4ccccc4c32)cc1OC (stereo not drawn)	inactive
NS(=O)(=O)c1ccc(CCNc2nc3c(-c4cccc(F)c4)nnn3c3ccc(Cl)cc23)cc1	inconclusive: 17.8 µM [inhibitor, single point]
O=C(Cn1c(=O)c(=O)n(Cc2ccccc2)c2ccc(Cl)cc21)Nc1ccc(F)cc1F	inconclusive: 3.16 µM [inhibitor, partial curve, poor fit]
Cc1oc(-c2ccc(Cl)cc2)nc1Cn1c(=O)cc(-c2ccccc2)c2c(C)nn(C)c21	inactive
Cc1cccc(OCc2nnc(SC(C)C(=O)Nc3ccc(N4CCOCC4)cc3)o2)c1 (stereo not drawn)	inconclusive: 3.16 µM [inhibitor, partial curve, poor fit]
CN(C)c1ccc(/C=C/c2cccc[n+]2[O-])cc1	inconclusive: 28.2 µM [inhibitor, single point]
CC1CC(C)CN(S(=O)(=O)c2ccc(C(=O)NNC(=O)c3ccccc3F)cc2)C1 (stereo not drawn)	inconclusive: 35.5 µM [inhibitor, single point]
CCCCNC(=O)COC(=O)c1c2c(nc3ccccc13)/C(=C/c1cccs1)CC2	inconclusive: 35.5 µM [inhibitor, single point]
CCOc1ccc(-c2cc(C(F)(F)F)c(C#N)c(SCC(=O)Nc3ccccc3)n2)cc1	inconclusive: 14.1 µM [inhibitor, partial curve, poor fit]
CC(C)(C)NC(=O)COc1ccc(CNCCc2ccccc2)cc1	inconclusive: 3.55 µM [inhibitor, single point]
O=[N+]([O-])c1ccc(-c2cn3nc(-c4ccccc4)c(-c4ccccc4)nc3n2)cc1	inconclusive: 35.5 µM [inhibitor, single point]
CSc1ccccc1NC(=O)CN(C)Cc1c(O)ccc2ccccc12	inconclusive: 22.4 µM [inhibitor, single point]
CSc1ccc(S(=O)(=O)N2CCN(Cc3ccc4c(c3)OCO4)CC2)cc1	inactive
CC(C)CN(C(=O)COC(=O)CCC(=O)c1ccc(Cl)cc1)c1c(N)n(Cc2ccccc2)c(=O)[nH]c1=O	inconclusive: 7.08 µM [inhibitor, partial curve, poor fit]
COc1ccccc1/C=C1\Cc2ccccc2C1=O	inactive
O=C(O)c1sccc1SCc1ccc(Cl)c(Cl)c1	inactive
O=S(=O)(Nc1ncccn1)c1cc(Cl)ccc1Cl	inconclusive: 5.62 µM [inhibitor, single point]
Cc1nc2cc(NC(=O)c3ccc(Br)s3)ccc2s1	inconclusive: 35.5 µM [inhibitor, single point]
Cc1ccc(Nc2c([N+](=O)[O-])c(=O)oc3ccccc23)cc1C	inconclusive: 35.5 µM [inhibitor, single point]

Compound	Potency
O=c1[nH]c(S)c(/C=C2\C=Nc3ccccc32)s1	inconclusive: 1.78 µM [inhibitor, partial curve, poor fit]
Cc1cc(NC(=O)C2CCCN(S(=O)(=O)c3cccc4nonc34)C2)ccc1Br (stereo not drawn)	inconclusive: 31.6 µM [inhibitor, single point]
CCOC(=O)c1sc(N)c(C(=O)Nc2ccccc2OC)c1C	inconclusive: 0.562 µM [inhibitor, full curve, poor fit]
COCCCN1CN(S(=O)(=O)c2ccc(C)cc2C)c2nc3ccccc3nc21	inconclusive: 6.31 µM [inhibitor, single point]
COc1ccccc1NC(=O)Cc1csc(NC(=S)Nc2ccc(C)cc2)n1	inactive
CCN(CC)c1ccc2cc(C(=O)NNC(=O)c3ccc(S(=O)(=O)N4CCCCC4)cc3)c(=O)oc2c1	inconclusive: 5.62 µM [inhibitor, partial curve, poor fit]
Cc1cc(C)c[n+](-c2nc3ccccc3nc2[N-]S(=O)(=O)c2ccc(Cl)cc2)c1	inconclusive: 17.8 µM [inhibitor, partial curve, poor fit]
Cc1cc(C)c(NC(=O)CSc2nc3ccc(N4C(=O)c5ccccc5C4=O)cc3s2)c(C)c1	inconclusive: 35.5 µM [inhibitor, single point]
CCN(CC)c1ccc2cc(C#N)c(=O)oc2c1	inconclusive: 3.98 µM [inhibitor, full curve, poor fit]
COc1ccc(-n2nc3c(N4CCC(C(=O)NCc5cccc(C)c5)CC4)nnc(C)c3c2C)cc1	inactive
O=C(C1CC1)N1CCc2cc(S(=O)(=O)N3CCOCC3)ccc21	inactive
Cc1ccc(/C=C2\SC(=S)N(CCC(=O)NNS(=O)(=O)c3ccccc3)C2=O)cc1	inconclusive: 22.4 µM [inhibitor, partial curve, poor fit]
Cc1ccc(NC(=O)c2sc3nc(N)c(C#N)cc3c2N)cc1	inconclusive: 35.5 µM [inhibitor, single point]
C=CCOc1cccc(C2C(C(=O)c3cc4ccccc4o3)=C(O)C(=O)N2c2cc(C)on2)c1 (stereo not drawn)	inactive
COc1ccc(Nc2oc(COc3ccccc3OC)nc2C#N)cc1	inconclusive: 12.6 µM [inhibitor, partial curve, poor fit]
COc1ccc2sc(/C=C/c3ccccc3O)[n+](C)c2c1	inconclusive: 35.5 µM [inhibitor, single point]
Cc1cc(NS(=O)(=O)c2ccc(NS(=O)(=O)c3ccc(CC(C)C)cc3)cc2)nc(C)n1	inconclusive: 22.4 µM [inhibitor, single point]
O=C(NC(=S)N1CCCC(C(F)(F)F)C1)c1ccc(F)cc1 (stereo not drawn)	inconclusive: 3.16 µM [inhibitor, single point]
CN(C#N)c1nc(Cl)nc(Nc2cccc(Cl)c2)n1	inactive
COc1ccc(NC(=S)Nc2ncccc2C)cc1OC	inactive
CC(=O)NS(=O)(=O)c1ccc(N/C(N)=N/c2nc(C)cc(C)n2)cc1	inconclusive: 35.5 µM [inhibitor, single point]
